# Measurements: article PMC7819943, “Rice protein-binding microarrays: a tool to detect cis-acting elements near promoter regions in rice”
# The chains behind the UniProt entries cited, without tags or fusion partners.
# UniProt Q0JBA9, entry or part of it: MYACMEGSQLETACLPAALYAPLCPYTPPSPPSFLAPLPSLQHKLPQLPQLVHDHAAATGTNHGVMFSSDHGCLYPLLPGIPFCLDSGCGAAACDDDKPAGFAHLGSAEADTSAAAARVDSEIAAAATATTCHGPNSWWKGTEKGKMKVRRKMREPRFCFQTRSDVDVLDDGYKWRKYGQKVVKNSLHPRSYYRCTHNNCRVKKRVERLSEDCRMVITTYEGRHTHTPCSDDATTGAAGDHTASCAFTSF
# This is one part of the list.
# Target: OsWRKY34 (Oryza sativa, UniProt Q0JBA9 1-250)
# Assay: protein-binding microarray (RPBM); PBS, 2% BSA, 51.3 ng/ul salmon testes DNA, 50 uM zinc acetate, 200 nM TF, 25 C, 1 h; high values mean tight binding
# Conditions: protein: recombinant; tags: N-terminal polyhistidine and DsRed monomer fusion (pET32a); label: CyDye5-dUTP incorporated in the synthesized complementary strand; 3' TTTTT single-stranded linker to array surface; dsDNA, one strand shown
# Summary of the method: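 Ni–NTA purification followed expression in E. coli BL21-CodonPlus of transcription factors fused N-terminally to a polyhistidine tag and DsRed. At 200 nM in PBS with 2% BSA, salmon testes DNA and 50 µM zinc acetate, the protein was incubated for 1 h at 25 °C with a custom Agilent array that had been primer-extended with Cy5-dUTP and blocked with 2% BSA. After washing, the array was read on an Axon 4000B scanner. The binding signal is per-feature fluorescence intensity in arbitrary units.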
row,Sequence,binding signal
1,GCCCGCGCTTCATCCGGTAACCACCGTCACCAACCGTGCGCGGAGTCACCTAGTGCAG,8110 fluorescence intensity (a.u.)
2,AGAGAATTATGGAGAGGGGAGGGGAGGGGCAGCAAAAGAGCGGAGTCACCTAGTGCAG,9750 fluorescence intensity (a.u.)
3,GCACAAATGGGAAGTCTTTGCTTGTACTTTCTTCCATCTACGGAGTCACCTAGTGCAG,10400 fluorescence intensity (a.u.)
4,ATCCCTGTATTACTCCATTATCCATTCGATTCCCACGAGGCGGAGTCACCTAGTGCAG,11500 fluorescence intensity (a.u.)
5,GAAAAGCACGCTATTACCAGTACCACCACTGTTCGTTTCGCGGAGTCACCTAGTGCAG,8260 fluorescence intensity (a.u.)
6,AAACACAGAATCATCATCAACCGCCACTGCTACTAATCCTCGGAGTCACCTAGTGCAG,8390 fluorescence intensity (a.u.)
7,AAACTTGCTCTTCCTACCTTGCAGTAATCTCAGCGCTGCTCGGAGTCACCTAGTGCAG,9510 fluorescence intensity (a.u.)
8,GTAGCTGTCGAACGTGTCGTCCTAGACCTTACTGCCTCCACGGAGTCACCTAGTGCAG,12500 fluorescence intensity (a.u.)
9,CTTCAACTCAAATGTCATCCGATGTCTGTTTCGTACCCGGCGGAGTCACCTAGTGCAG,8830 fluorescence intensity (a.u.)
10,ACTCTAGAGCTTTTCTTTGGTTTGCTTATCCTTATGCTTACGGAGTCACCTAGTGCAG,10400 fluorescence intensity (a.u.)
11,TATTACCCGCATTGTTCAACTGCCATTTCTCTCCTCAATTCGGAGTCACCTAGTGCAG,8610 fluorescence intensity (a.u.)
12,CACTCTTCCGCCGCGCTATATAAACCGCGCGAGGCGTCGTCGGAGTCACCTAGTGCAG,9460 fluorescence intensity (a.u.)
13,GCACAAACTTCCTTACTGTTCACACATTTTCAACTGTCCTCGGAGTCACCTAGTGCAG,8330 fluorescence intensity (a.u.)
14,AAACGATACTGATCCCACCTAGTATCCTAATTTTTGTAGTCGGAGTCACCTAGTGCAG,9100 fluorescence intensity (a.u.)
15,ATTTTAAGACGGATGGAATAGTGGTGTGTAGTTTCAAAATCGGAGTCACCTAGTGCAG,8280 fluorescence intensity (a.u.)
16,TTGGTTTTGGTTTGGGTGGTTGATGTGTGGGTGGTGGTGGCGGAGTCACCTAGTGCAG,19000 fluorescence intensity (a.u.)
17,ATTATTTTTGGTTGTTCTATTTATTTTCTTAAAATAATTCCGGAGTCACCTAGTGCAG,11300 fluorescence intensity (a.u.)
18,AGGCTTTTTTTTTTACATTTTTCACCAGGGCTTTGCTCGCCGGAGTCACCTAGTGCAG,9890 fluorescence intensity (a.u.)
19,GTACTCGCAAAATCCTTCGCGACCAAGGTACCTAATGTTGCGGAGTCACCTAGTGCAG,8710 fluorescence intensity (a.u.)
20,ACGTTTTGTACTTGGTGTGACTCCTAACTGCCTACTAAGCCGGAGTCACCTAGTGCAG,9200 fluorescence intensity (a.u.)
21,AATGCGCCTCGCATCGCCCAAGTAGTCGTCTCTAAATTCTCGGAGTCACCTAGTGCAG,8360 fluorescence intensity (a.u.)

row,Sequence,binding signal
1,TGCAAACTTACCACCCAATCCGCATGCCTTCTCTAATGCACGGAGTCACCTAGTGCAG,8990 fluorescence intensity (a.u.)
2,CTCCCACCGCGCCGCCTCTCCTCTCCACCACCCAGTGAACCGGAGTCACCTAGTGCAG,9490 fluorescence intensity (a.u.)
3,TATGATTGACGATGTGGGAGGGTGTAGGGAAATAGTTGTCCGGAGTCACCTAGTGCAG,8340 fluorescence intensity (a.u.)
4,ACGTGGGTGGTGACCGGAATCGGGGTGGTAAAAATCCAAACGGAGTCACCTAGTGCAG,8630 fluorescence intensity (a.u.)
5,GGTGGTGGTGGTGCCGCTGCTCCAAGCCGCGACCCTCCAACGGAGTCACCTAGTGCAG,8460 fluorescence intensity (a.u.)
6,CACTCCACTCCAAAACATCTCAATGTCCTTCTTTATATATCGGAGTCACCTAGTGCAG,8080 fluorescence intensity (a.u.)
7,ACGACAGATGCATCCTCCGCATACACTTCAGATTTGCTATCGGAGTCACCTAGTGCAG,8320 fluorescence intensity (a.u.)
8,GTCGTTGACTTTTTAACCACAACGTTTGACCATTCGTCTTCGGAGTCACCTAGTGCAG,21800 fluorescence intensity (a.u.)
9,CCTGTGCGGTCCTTTGACAAGGTCTTCGCTTGGCGAAGTTCGGAGTCACCTAGTGCAG,8200 fluorescence intensity (a.u.)
10,ACTTTATTTTGTGGGCTGAGATAGTAAATGGACTGAAAAACGGAGTCACCTAGTGCAG,8080 fluorescence intensity (a.u.)
11,CGCCAGCTAGTTTTGTTTTTGCTGCGGCAACTGCGCTACTCGGAGTCACCTAGTGCAG,8060 fluorescence intensity (a.u.)
12,TACCTACTCCTAGTTGCATGATATGCTCTTCTTCTTCTCTCGGAGTCACCTAGTGCAG,10600 fluorescence intensity (a.u.)
13,GCCGCTGCTCCTGTTTGTCATTAGGGTAGGCCCGCGTGAACGGAGTCACCTAGTGCAG,8270 fluorescence intensity (a.u.)
14,GAATTTGCTCTATCATGAAGTGATACATCATTAGCGGCAGCGGAGTCACCTAGTGCAG,8710 fluorescence intensity (a.u.)
15,CGCATCTTCCGCCGCCTCTGCCTCCGCCTCCGCCCTGGCTCGGAGTCACCTAGTGCAG,9320 fluorescence intensity (a.u.)
16,AATGTTTCTTATTTGGTTTTAAATTTCAGCGAAATTTTGACGGAGTCACCTAGTGCAG,8180 fluorescence intensity (a.u.)
17,TTAATACCTCCATTTATTCTTGTTGCATGCACGGTATTAACGGAGTCACCTAGTGCAG,9900 fluorescence intensity (a.u.)
18,AATTCAGTTTAGTATCATGATTTTTTGGATATTGTTTTAACGGAGTCACCTAGTGCAG,8230 fluorescence intensity (a.u.)
19,AGCGTGCCTCAACTTCTCCAACTCCGCGTGGCTGCTCGCCCGGAGTCACCTAGTGCAG,8050 fluorescence intensity (a.u.)
20,TTTTCTCTTACATCTTGGGCTTTTATATGGGCCGGTGGCTCGGAGTCACCTAGTGCAG,11100 fluorescence intensity (a.u.)
21,CGCACTCACCCCGTCACCCGACGCCGCCGACTCCTCCCTCCGGAGTCACCTAGTGCAG,9000 fluorescence intensity (a.u.)

# A second format for some results above.
row	Sequence	binding signal
1	TGCAAACTTACCACCCAATCCGCATGCCTTCTCTAATGCACGGAGTCACCTAGTGCAG	8990 fluorescence intensity (a.u.)
2	CTCCCACCGCGCCGCCTCTCCTCTCCACCACCCAGTGAACCGGAGTCACCTAGTGCAG	9490 fluorescence intensity (a.u.)
